# Measured values published in the supplement of paper PMC8728848.
# The list shows a part of the results.
# B1: Clec18A (Homo sapiens) (protein)
# chain: PFHTCDLRIDGDCFMVSSEADTYYRARMKCQRKGGVLAQIKRQKVQDILAFYLGRLETTNEVIDSDFETRNFWIGLTYKTAKDSFRWATGEHQAFTSFAFGQPDNHGFGNCVELQASAAFNWNDQRCKTRNRYICQ
# What was measured:
# Assay in all cases: glycan array binding signal (z-score within array); higher = stronger binding
# Settings in all cases: glycan notation: IUPAC condensed, linker removed
# [1] = molecular target: Neu5Ac(a2-6)Gal(b1-4)GlcNAc(b1-3)Gal(b1-4)GlcNAc(b1-3)GalNAc
# Method in brief: (§1)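 From the Consortium for Functional Glycomics database, 3228 arrays were curated, keeping only those whose protein sequence was available. Binding is given as a within-array Z-score averaged across arrays sharing a protein sequence and across linkers. Negative Z-scores can be read as non-binding.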
# [2] = molecular target: Neu5Ac(a2-6)Gal(b1-4)GlcNAc(b1-3)Gal(b1-4)GlcNAc(b1-3)[Neu5Ac(a2-6)Gal(b1-4)GlcNAc(b1-3)Gal(b1-4)GlcNAc(b1-6)]GalNAc
# Method in brief: as §1
# [3] = molecular target: Neu5Ac(a2-6)Gal(b1-4)GlcNAc(b1-3)Gal(b1-4)GlcNAc(b1-6)[Gal(b1-3)]GalNAc
# Method in brief: as §1
# [4] = molecular target: Neu5Ac(a2-6)Gal(b1-4)GlcNAc(b1-3)Gal(b1-4)[Fuc(a1-3)]GlcNAc(b1-3)Gal(b1-4)[Fuc(a1-3)]GlcNAc
# Method in brief: as §1
# [5] = molecular target: Neu5Ac(a2-6)Gal(b1-4)GlcNAc(b1-3)GalNAc
# Method in brief: as §1
# [6] = molecular target: Neu5Ac(a2-6)Gal(b1-4)GlcNAc(b1-3)[Neu5Ac(a2-6)Gal(b1-4)GlcNAc(b1-6)]GalNAc
# Method in brief: as §1
# [7] = molecular target: Neu5Ac(a2-6)Gal(b1-4)GlcNAc(b1-6)GalNAc
# Method in brief: as §1
# [8] = molecular target: Neu5Ac(a2-6)Gal(b1-4)GlcNAc(b1-6)[Gal(b1-3)GlcNAc(b1-3)]Gal(b1-4)Glc
# Method in brief: as §1
# [9] = molecular target: Neu5Ac(a2-6)Gal(b1-4)GlcNAc(b1-6)[Gal(b1-3)]GalNAc
# Method in brief: as §1
# [10] = molecular target: Neu5Ac(a2-6)Gal(b1-4)GlcNAc6S
# Method in brief: as §1
# Neu5Ac(a2-6)GalNAc = molecular target: Neu5Ac(a2-6)GalNAc
# Method in brief: as §1
# [11] = molecular target: Neu5Ac(a2-6)GalNAc(b1-4)GlcNAc
# Method in brief: as §1
# [12] = molecular target: Neu5Ac(a2-6)GalNAc(b1-4)GlcNAc6S
# Method in brief: as §1
# [13] = molecular target: Neu5Ac(a2-6)GlcNAc(b1-4)GlcNAc
# Method in brief: as §1
# [14] = molecular target: Neu5Ac(a2-6)GlcNAc(b1-4)GlcNAc(b1-4)GlcNAc
# Method in brief: as §1
# Neu5Ac(a2-8)Neu5Ac = molecular target: Neu5Ac(a2-8)Neu5Ac
# Method in brief: as §1
# [15] = molecular target: Neu5Ac(a2-8)Neu5Ac(a2-3)Gal(b1-3)GalNAc(b1-4)[Neu5Ac(a2-3)]Gal(b1-4)Glc
# Method in brief: as §1
# [16] = molecular target: Neu5Ac(a2-8)Neu5Ac(a2-3)Gal(b1-3)GalNAc(b1-4)[Neu5Ac(a2-8)Neu5Ac(a2-3)]Gal(b1-4)Glc
# Method in brief: as §1
# [17] = molecular target: Neu5Ac(a2-8)Neu5Ac(a2-3)Gal(b1-4)Glc
# Method in brief: as §1
# [18] = molecular target: Neu5Ac(a2-8)Neu5Ac(a2-3)Gal(b1-4)GlcNAc
# Method in brief: as §1
# [19] = molecular target: Neu5Ac(a2-8)Neu5Ac(a2-3)[Gal(b1-3)GalNAc(b1-4)]Gal(b1-4)Glc
# Method in brief: as §1
# [20] = molecular target: Neu5Ac(a2-8)Neu5Ac(a2-3)[GalNAc(b1-4)]Gal(b1-4)Glc
# Method in brief: as §1
# [21] = molecular target: Neu5Ac(a2-8)Neu5Ac(a2-8)Neu5Ac
# Method in brief: as §1
# [22] = molecular target: Neu5Ac(a2-8)Neu5Ac(a2-8)Neu5Ac(a2-3)Gal(b1-4)Glc
# Method in brief: as §1
# [23] = molecular target: Neu5Ac(a2-8)Neu5Ac(a2-8)Neu5Ac(a2-3)[Gal(b1-3)GalNAc(b1-4)]Gal(b1-4)Glc
# Method in brief: as §1
# [24] = molecular target: Neu5Ac(a2-8)Neu5Ac(a2-8)Neu5Ac(a2-3)[GalNAc(b1-4)]Gal(b1-4)Glc
# Method in brief: as §1
# [25] = molecular target: Neu5Ac(a2-8)Neu5Ac(a2-8)Neu5Ac(a2-8)Neu5Ac(a2-3)[GalNAc(b1-4)]Gal(b1-4)Glc
# Method in brief: as §1
# [26] = molecular target: Neu5Ac(a2-8)Neu5Gc(a2-3)Gal(b1-4)GlcNAc
# Method in brief: as §1
# [27] = molecular target: Neu5Ac(b2-6)Gal(b1-4)GlcNAc
# Method in brief: as §1
# Neu5Ac(b2-6)GalNAc = molecular target: Neu5Ac(b2-6)GalNAc
# Method in brief: as §1
# [28] = molecular target: Neu5Ac9Ac(a2-3)Gal(b1-3)GlcNAc
# Method in brief: as §1
# [29] = molecular target: Neu5Ac9Ac(a2-3)Gal(b1-4)GlcNAc
# Method in brief: as §1
# [30] = molecular target: Neu5Ac9Ac(a2-6)Gal(b1-4)GlcNAc
# Method in brief: as §1
# [31] = molecular target: Neu5Gc(a2-3)Gal(b1-3)GlcNAc
# Method in brief: as §1
# [32] = molecular target: Neu5Gc(a2-3)Gal(b1-3)[Fuc(a1-4)]GlcNAc
# Method in brief: as §1
# Neu5Gc(a2-3)Gal(b1-4)Glc = molecular target: Neu5Gc(a2-3)Gal(b1-4)Glc
# Method in brief: as §1
# [33] = molecular target: Neu5Gc(a2-3)Gal(b1-4)GlcNAc
# Method in brief: as §1
# [34] = molecular target: Neu5Gc(a2-3)Gal(b1-4)GlcNAc(b1-3)Gal(b1-4)GlcNAc(b1-2)Man(a1-3)[Neu5Gc(a2-3)Gal(b1-4)GlcNAc(b1-3)Gal(b1-4)GlcNAc(b1-2)Man(a1-6)]Man(b1-4)GlcNAc(b1-4)GlcNAc
# Method in brief: as §1
# [35] = molecular target: Neu5Gc(a2-3)Gal(b1-4)[Fuc(a1-3)]GlcNAc
# Method in brief: as §1
# [36] = molecular target: Neu5Gc(a2-6)Gal(b1-4)GlcNAc
# Method in brief: as §1
# Neu5Gc(a2-6)GalNAc = molecular target: Neu5Gc(a2-6)GalNAc
# Method in brief: as §1
# [37] = molecular target: Neu5Gc(a2-8)Neu5Ac(a2-3)Gal(b1-4)GlcNAc
# Method in brief: as §1
# [38] = molecular target: Neu5Gc(a2-8)Neu5Gc(a2-3)Gal(b1-4)GlcNAc
# Method in brief: as §1
# [39] = molecular target: Neu5Gc(a2-8)Neu5Gc(a2-3)Gal(b1-4)GlcNAc(b1-3)Gal(b1-4)GlcNAc
# Method in brief: as §1
# [40] = molecular target: Neu5Gc(a2-8)Neu5Gc(a2-6)Gal(b1-4)GlcNAc
# Method in brief: as §1
# [41] = molecular target: Neu5Gc(b2-6)Gal(b1-4)GlcNAc
# Method in brief: as §1
binder,measurement,setting,value
B1,glycan array binding signal (z-score),[1],-0.357
same,glycan array binding signal (z-score),[2],-0.516
same,glycan array binding signal (z-score),[3],0.884
same,glycan array binding signal (z-score),[4],1.62
same,glycan array binding signal (z-score),[5],-0.582
same,glycan array binding signal (z-score),[6],3.01
same,glycan array binding signal (z-score),[7],0.032
same,glycan array binding signal (z-score),[8],1.12
same,glycan array binding signal (z-score),[9],1.17
same,glycan array binding signal (z-score),[10],-0.574
same,glycan array binding signal (z-score),Neu5Ac(a2-6)GalNAc,-0.64
same,glycan array binding signal (z-score),[11],-0.176
same,glycan array binding signal (z-score),[12],-0.206
same,glycan array binding signal (z-score),[13],0.349
same,glycan array binding signal (z-score),[14],-0.879
same,glycan array binding signal (z-score),Neu5Ac(a2-8)Neu5Ac,-0.352
same,glycan array binding signal (z-score),[15],-0.409
same,glycan array binding signal (z-score),[16],0.126
same,glycan array binding signal (z-score),[17],-0.626
same,glycan array binding signal (z-score),[18],-0.905
same,glycan array binding signal (z-score),[19],-0.26
same,glycan array binding signal (z-score),[20],4.6
same,glycan array binding signal (z-score),[21],-0.475
same,glycan array binding signal (z-score),[22],-0.813
same,glycan array binding signal (z-score),[23],-0.862
same,glycan array binding signal (z-score),[24],1.04
same,glycan array binding signal (z-score),[25],0.826
same,glycan array binding signal (z-score),[26],-0.809
same,glycan array binding signal (z-score),[27],0.965
same,glycan array binding signal (z-score),Neu5Ac(b2-6)GalNAc,1.46
same,glycan array binding signal (z-score),[28],-0.731
same,glycan array binding signal (z-score),[29],-0.801
same,glycan array binding signal (z-score),[30],-0.564
same,glycan array binding signal (z-score),[31],-0.527
same,glycan array binding signal (z-score),[32],-0.585
same,glycan array binding signal (z-score),Neu5Gc(a2-3)Gal(b1-4)Glc,-0.558
same,glycan array binding signal (z-score),[33],-0.834
same,glycan array binding signal (z-score),[34],0.411
same,glycan array binding signal (z-score),[35],-0.017
same,glycan array binding signal (z-score),[36],-0.733
same,glycan array binding signal (z-score),Neu5Gc(a2-6)GalNAc,-0.513
same,glycan array binding signal (z-score),[37],-0.782
same,glycan array binding signal (z-score),[38],-0.809
same,glycan array binding signal (z-score),[39],-0.762
same,glycan array binding signal (z-score),[40],-0.754
same,glycan array binding signal (z-score),[41],1.59
